The conditions of series [1]: source (a) NIST Standard Reference Database 46; cited from earlier work.
Series [2] is described as follows: Iron affinity, stepwise association constant log K1. Format: physicochemical.
The mark [3] stands for this setting: (c) interpolated from correlation between Zn^2+ and Fe^2+ data.

Here are results for 6 compounds from patent publication EP2632470B1 (priority 2010, dated 2012).

Structures are written as SMILES. Where two headings read alike, the source gives them in different places.

As for `c1ccc(CN(CCN(Cc2ccccn2)Cc2ccccn2)Cc2ccccn2)nc1` [N,N,N',N-tetrakis(2-pyridylmethyl) ethylenediamine], the “Iron Affinity, log K1 Fe^2+, pH = 7.4” value in series [1] is reported as 14.2 (a).

As for `CC(C)c1cccc(O)c(=O)c1` [1-Hydroxy-4-(1-methylethyl)cyclohepta-3,5,7-trien-2-one], the “Iron Affinity, log K1 Fe^2+, pH = 7.4” value in series [2] (setting [3]) was 4.9 (c).

With `CCC(NCCNC(CC)C(=O)O)C(=O)O` (stereo not drawn) [Ethylenediiminodi-2-butanoic acid], in series [2] (setting [3]), the “Iron Affinity, log K1 Fe^2+, pH = 7.4” value is listed as 6.3 (c).

On to `NCCc1ccccn1` [2-(2-aminoethyl)-pyridine], for which the “Iron Affinity, log K1 Fe^2+, pH = 7.4” value in series [2] ((d) interpolated from correlation between Fe^3+ and Fe^2+ data) is 5.2 (d).

Consider `O=C(O)CN(CC(=O)O)[C@@H]1CCCC[C@H]1N(CC(=O)O)CC(=O)O` (relative stereo) [trans-1,2-Cyclohexylenedinitrilotetraacetic acid], for which, in series [1], the “Iron Affinity, log K1 Fe^2+, pH = 7.4” value is given as 14.0 (a).

`c1cnc2c(c1)ccc1cccnc12` [1,10-Phenanthroline]: the “Iron Affinity, log K1 Fe^2+, pH = 7.4” value in series [1] was 5.9 (a).
